Assay results taken from US20080262088A1, “METHODS, COMPOUNDS, AND COMPOSITIONS FOR TREATING METABOLIC DISORDERS AND DIABETES” (priority 2006, published 2008).

Test system: Zucker Diabetic Fatty rat (ZDF)
Experiment: In vivo preventive study of renal function and metabolic status in ZDF rats (serum/urine chemistry, body and organ weights)
Conditions: either group, end of study
Excerpt: The compound 1,3 Propanedisulfonic Acid Disodium Salt (PDS) was selected for a preventive study of renal function in the Zucker rat (ZDF) model as well as its effect on metabolic status and diabetes.
A leading study model for DN is the inbred Zucker Diabetic Fatty rat (ZDF). Given a diabetogenic diet, the ZDF rat will closely mimic human adult onset diabetes (Type 2) and related complications including glomerulosclerosis and renal damage earlier than when fed a normal diet (i.e. 14-18 weeks of age). […]
Thirty-two, 6 week-old male ZDF rats (Charles River, St. Constant, Canada) were randomized in 2 groups, Treated (PDS; in 1% sucrose drinking solution) and Control (1% sucrose drinking solution), and studied for a period of 12 weeks. […] Body weight, food and drinking solution consumption were measured on a daily basis. […] At the end of each metabolic cage session, urine output was measured, and blood and urine samples were collected in order to quantify serum and/or urine levels of PDS, creatinine, protein, uric acid, triglycerides, glucose, and electrolytes. […]
This pre-clinical investigation evaluates the role and efficacy of compound 1,3-Propanedisulfonic Acid Disodium Salt (PDS) (Eprodisate Disodium) as a preventive treatment for DN and related pathophysiology in the ZDF rat model. The primary measured outcome is the attenuation/reversal of creatinine clearance deterioration and of proteinuria. […]

O=S(=O)([O-])CCCS(=O)(=O)[O-].[Na+].[Na+] [PDS, 1,3 Propanedisulfonic Acid Disodium Salt]
amyloid deposit in the kidneys: No amyloid deposit was detected
